For one molecule, binding results are on record in paper PMC10080908.

No constants are given. Whether binding was seen depends on the method and setting. In cells and extracts the contact can be indirect. For part of these data: Binding calls can cover weak binding; strength is not graded here. Sequences can lack the tags named with a protein.

What all share (assay): co-IP; HEK-293 cells transiently transfected with HA-UBXN7-WT and the Flag-RNF111 constructs; lysates in IP150 buffer (150 mM NaCl, 20 mM Tris-HCl pH 7.5, 5 mM EDTA, 1% NP40, 10% glycerol) immunoprecipitated with Flag antibody and Protein G Sepharose overnight at 4 °C; western blot with HA and Flag antibodies
In assay [1] the target is Flag-RNF111 Δ845-868 (human).
Assay [2] concerns the target Flag-RNF111 Δ757-844 (human).
The target of assay [3] is Flag-RNF111 Δ869-894 (human).
The target of assay [4] is Flag-RNF111 Δ895-932 (human).
For assay [5], the target named is Flag-RNF111 Δ671-756 (human).
Assay [6] concerns the target Flag-RNF111 Δ933-Cter (human).

B1: HA-UBXN7-WT (protein, UniProt O94888 1-489)
chain: MAAHGGSAASSALKGLIQQFTTITGASESVGKHMLEACNNNLEMAVTMFLDGGGIAEEPSTSSASVSTVRPHTEEEVRAPIPQKQEILVEPEPLFGAPKRRRPARSIFDGFRDFQTETIRQEQELRNGGAIDKKLTTLADLFRPPIDLMHKGSFETAKECGQMQNKWLMINIQNVQDFACQCLNRDVWSNEAVKNIIREHFIFWQVYHDSEEGQRYIQFYKLGDFPYVSILDPRTGQKLVEWHQLDVSSFLDQVTGFLGEHGQLDGLSSSPPKKCARSESLIDASEDSQLEAAIRASLQETHFDSTQTKQDSRSDEESESELFSGSEEFISVCGSDEEEEVENLAKSRKSPHKDLGHRKEENRRPLTEPPVRTDPGTATNHQGLPAVDSEILEMPPEKADGVVEGIDVNGPKAQLMLRYPDGKREQITLPEQAKLLALVKHVQSKGYPNERFELLTNFPRRKLSHLDYDITLQEAGLCPQETVFVQERN
In the case of B1, the binding result is on record as “binds” in assay [1]; “binds” in assay [2]; “binds” in assay [3]; “binds weakly” in assay [4]; “binds” in assay [5]; “no binding” in assay [6].
